System: 'Fina Sodea' Clementine mandarin trees
Test: Adenosine by foliar spray (canopy application): fruit number, yield and value of mandarin trees
Assay type: in vivo
Conditions: based on 200 trees/acre
Description: This example describes the increase in the number and yield of commercially valuable fruit of Clementine mandarin trees achieved by canopy application of adenosine. Adenosine (9-beta-D-adenosine) obtained from Sigma Chemical Co. (Catalog No. A9251) was applied (25 mg/L in 250 gallons of water per acre; 23.66 g/acre) with a 400 psi handgun sprayer one time at maximum peel thickness, which marks the end of the cell division stage of citrus fruit development, to ‘Fina Sodea’ Clementine mandarin trees.

## Nc1ncnc2c1ncn2[C@@H]1O[C@H](CO)[C@@H](O)[C@H]1O [Adenosine, 9-beta-D-adenosine]
$3.50 per 11 kg box
  Fruit value (cumulative income), Small: 1497.80 US$/acre
$3.75 per 11 kg box
  Fruit value (cumulative income), Medium: 2522.40 US$/acre
$4.10 per 11 kg box
  Fruit value (cumulative income), Jumbo: 1149.50 a US$/acre
  Fruit value (cumulative income), Large: 2584.10 a US$/acre
  Fruit value (cumulative income), Mammoth: 262.10 US$/acre
Sum of mammoth, jumbo and large
  Fruit value (cumulative income), Ma + J + L: 3995.60 a US$/acre
Sum of small, medium, large, jumbo and mammoth
  Fruit value (cumulative income), Total: 8015.80 US$/acre

From patent US10321684B2, “Use of 9-beta-D-adenosine to increase crop production” (The Regents of the University of California, priority 2009, dated 2019)
